## Screening data, single-dose tests

By UniProt entry, the sequences of proteins in these tests, tags left out.
UniProt I6X8D2, whole entry: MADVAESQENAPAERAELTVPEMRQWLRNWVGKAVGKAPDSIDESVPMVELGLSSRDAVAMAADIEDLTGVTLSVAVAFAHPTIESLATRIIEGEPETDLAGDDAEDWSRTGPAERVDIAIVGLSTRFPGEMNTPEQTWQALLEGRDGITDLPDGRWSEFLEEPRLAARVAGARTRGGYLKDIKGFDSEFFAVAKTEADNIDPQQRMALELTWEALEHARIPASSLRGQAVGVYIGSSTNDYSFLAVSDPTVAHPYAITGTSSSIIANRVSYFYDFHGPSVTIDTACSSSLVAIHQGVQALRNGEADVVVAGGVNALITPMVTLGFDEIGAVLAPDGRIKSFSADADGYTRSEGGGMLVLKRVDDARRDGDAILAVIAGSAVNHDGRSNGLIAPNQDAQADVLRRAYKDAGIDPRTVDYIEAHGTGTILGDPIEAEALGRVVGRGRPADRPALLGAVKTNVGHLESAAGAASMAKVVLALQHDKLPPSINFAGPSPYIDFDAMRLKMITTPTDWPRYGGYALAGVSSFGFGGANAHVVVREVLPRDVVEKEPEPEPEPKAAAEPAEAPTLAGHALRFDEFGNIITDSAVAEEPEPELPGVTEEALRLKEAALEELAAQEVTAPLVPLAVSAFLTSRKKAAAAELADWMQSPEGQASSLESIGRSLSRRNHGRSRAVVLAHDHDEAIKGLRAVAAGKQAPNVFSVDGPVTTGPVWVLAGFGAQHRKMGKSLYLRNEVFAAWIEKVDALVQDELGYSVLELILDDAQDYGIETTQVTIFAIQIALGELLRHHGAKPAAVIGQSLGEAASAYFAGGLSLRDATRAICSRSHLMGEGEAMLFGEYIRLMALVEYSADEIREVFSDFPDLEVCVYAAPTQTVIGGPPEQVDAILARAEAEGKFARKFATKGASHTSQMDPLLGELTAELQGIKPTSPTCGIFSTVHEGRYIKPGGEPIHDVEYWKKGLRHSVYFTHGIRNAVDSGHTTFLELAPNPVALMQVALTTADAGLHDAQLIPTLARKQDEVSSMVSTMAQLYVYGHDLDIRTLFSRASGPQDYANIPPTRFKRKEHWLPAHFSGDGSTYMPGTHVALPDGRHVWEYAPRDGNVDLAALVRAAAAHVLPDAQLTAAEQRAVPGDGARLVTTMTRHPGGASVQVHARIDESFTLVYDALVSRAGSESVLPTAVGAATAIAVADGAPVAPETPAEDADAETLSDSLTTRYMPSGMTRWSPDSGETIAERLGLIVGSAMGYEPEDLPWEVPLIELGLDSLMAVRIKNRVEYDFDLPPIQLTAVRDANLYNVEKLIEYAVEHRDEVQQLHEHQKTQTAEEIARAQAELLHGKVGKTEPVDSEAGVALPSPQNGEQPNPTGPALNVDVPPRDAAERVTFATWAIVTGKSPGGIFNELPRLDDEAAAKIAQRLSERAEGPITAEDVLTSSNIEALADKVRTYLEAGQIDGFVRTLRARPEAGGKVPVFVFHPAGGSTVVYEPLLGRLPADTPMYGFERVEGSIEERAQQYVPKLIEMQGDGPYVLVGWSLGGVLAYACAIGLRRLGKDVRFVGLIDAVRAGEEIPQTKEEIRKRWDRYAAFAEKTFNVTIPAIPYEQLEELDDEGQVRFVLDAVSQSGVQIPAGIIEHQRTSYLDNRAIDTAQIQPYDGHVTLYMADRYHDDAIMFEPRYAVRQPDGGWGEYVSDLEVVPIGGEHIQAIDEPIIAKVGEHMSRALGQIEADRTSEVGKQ

Results are given as percent effect. How 0% and 100% were set is not recorded. Most values in the screen are low, and negative values occur. Compounds were drawn at random from those tested, without regard to their results.

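Enzyme assay of the thioesterase domain of polyketide synthase 13; the read-out is not stated. Target: Polyketide synthase Pks13, Mycobacterium tuberculosis (UniProt I6X8D2). Compounds at 30 µM. The record gives no direction; the compounds picked for IC50 retests had high values, so higher reads as stronger inhibition. About 67,000 compounds were tested under these conditions; 0.46% (about 300) showed 50% or more at least once.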

structure	Percent Effect
O=C(NCC1CCN(c2ncccn2)CC1)c1cnccn1	-5.86
COc1cc(C(=O)N(C)C)ccc1NC(=O)c1ccsc1	25.83
COc1ccnc(N2CCN(C(=O)Cc3ccc(C)s3)CC2)n1	-7.142
CCC(C(=O)NCc1ccncc1)N(c1ccccc1)S(C)(=O)=O (centres unmarked)	-33.86
Cc1nc(COC[C@@H]2CCC[C@@]23CN(C)CCO3)cs1	-10.13
CC(=O)N1CCC[C@@H](NCc2c[nH]c3ccccc23)[C@@H]1c1ccc(C)s1	-2.32
Cn1cnc2ccc(NC(=O)CC3CCN(S(C)(=O)=O)CC3)cc21	-19.89
Cc1nc(N2CCOCC2)sc1C(=O)NCC(C)(C)N1CCCCC1	1.639
Cc1cc(N(C)C)nc(C2(C)CCCN2CC(N)=O)n1 (centres unmarked)	-5.257
CCCNC(=O)c1cccc(CNCc2csc(CC)n2)c1	-4.639
Cc1cccc(-c2nccn2-c2cccc(CC(=O)O)c2)n1	-14.44
CNC(=O)CN1CCO[C@H]2CN(CC3CC3)C[C@H]21	-22.62
CC1=C(C#N)C(=O)N(C)C(=O)/C1=C\C1=Cc2ccccc2OC1	-11.15
c1cc(-c2cc(C3CCN(Cc4cncnc4)C3)ccn2)ccn1 (centres unmarked)	-26.85
CC(C)C(=O)N1CCN(Cc2cnn(C)c2)CC2(CC(=O)N(C)C2)C1 (centres unmarked)	1.381
O=C(NCc1cc(N2CCOCC2)ncn1)c1cccc(CO)n1	-3.876
O=C(NCc1cc(O)ncn1)C1CCOc2ccccc2C1 (centres unmarked)	2.121
CC(C)Nc1nc(-c2ccccc2)nc2c1CCN(C(=O)C1CC1)CC2	-13.01
CC(=O)N1CCCC2(CCN(C(=O)c3nn(C)c4ccccc34)CC2)C1	-64.75
COC(=O)CC(c1cnn(C)c1)c1oc(C)cc(=O)c1O (centres unmarked)	-7.637
Cc1ccc(CNCc2nnc3n2CCCC3C(F)(F)F)o1 (centres unmarked)	-10.54
CNC(=O)[C@H]1C[C@@H]2CN(C(=O)c3ccc(C)nc3)C[C@@H]2N1C(C)C	-12.8
Cc1cc(NC(=O)NCC2CCOC2)no1 (centres unmarked)	0.09531
Cc1cccc(C(=O)N2CCCC[C@]3(C)NC(=O)CCC[C@H]23)n1	-3.305
COC(=O)c1ccc(Cn2nc(C)cc2C)c(F)c1	-18.66
CCC(O)CN1CCN(C(=O)c2cccn2Cc2ccccc2)CC1 (centres unmarked)	-26.64
O=C(Nc1cccnc1)[C@@H]1CCO[C@@H]2CCN(Cc3cccnc3)C[C@@H]21	-8.415
Cn1nc(CN2CCCCC2)c2c1CN(C(=O)c1ccccc1)C2	-5.961
CC(Nc1ccc(F)cc1)c1nnnn1-c1ccccc1 (centres unmarked)	-6.976
O=C(c1c2c(N3CCCC3)ncnc2n2ccccc12)N1CCOCC1	-5.579
O=C(C1CCOCC1)N1C[C@@H]2CN(Cc3ccsc3)CCO[C@@H]2C1	6.64
CCNC(=O)c1ccc2c(c1)nc1n2CCN(C(C)C)C1	-7.388
CN(C)C(=O)c1cc(S(=O)(=O)N2CCCC2Cn2ccnc2)cn1C (centres unmarked)	-52.35
Cc1cc(C2CCCN2C(=O)c2cc3c(s2)CCC3)no1 (centres unmarked)	-23.44
CC(C)(C)c1noc(CCC(=O)N(CC2CCOC2)C2CC2)n1 (centres unmarked)	2.37
Cc1nc(CC(=O)N2CCCC(N(C)Cc3ccccc3)C2)cs1 (centres unmarked)	-4.618
CCN1CCN(C(=O)C(C)N2CCN(Cc3nccn3C)CC2)CC1 (centres unmarked)	-11.19
c1cc2c(cc1-c1noc3c1CN(C1CCC1)CC3)OCO2	-9.207
COc1cccc(CC(=O)N2CCC(O)(C(F)(F)F)C2)c1 (centres unmarked)	-32.41
CNS(=O)(=O)c1ccc(CNC(=O)c2ccccn2)cc1	-7.189
COc1ccc(C(=O)N2CC(=O)N(Cc3cccs3)CC(O)C2)cc1 (centres unmarked)	1.957
N#Cc1cccc(C(=O)Nc2ccc([C@@H](O)[C@H]3COCC(=O)N3)cc2)c1	-17.33
CCOc1ccc2nc(CN3CCC(CNC(C)=O)C3)ccc2c1 (centres unmarked)	-18.14
COc1cccc(COCC(=O)N2CCC(CC(N)=O)CC2)c1	1.433
COCCN(Cc1ccco1)Cc1nc(-c2ccc(C)c(F)c2)no1	7.85
Cc1cc2cc(Nc3c(C#N)c(=O)n(C)c(=O)n3C)ccc2[nH]1	-3.047
CC(C)c1nnc2n1CCN(C(=O)c1ccccc1OCC1CC1)C2	4.476
CN1CC(c2ccccc2)CC12CCN(C(=O)c1ccc(Cl)cc1)CC2 (centres unmarked)	-16.19
CNC(=O)[C@@H]1C[C@@H](n2cc(-c3ccc(CN4CC=CC4)cc3)nn2)CN1	-13.33
CC1COCCN1C(=O)c1ccc(=O)n(Cc2ccccc2)n1 (centres unmarked)	4.523
Cc1occc1CNC(=O)C1(C)CCCN1C(=O)c1ccccc1 (centres unmarked)	-26.35
CSCC(=O)N(C)Cc1noc(-c2ccccc2)n1	-4.405
Cc1cc(CNC(=O)c2ccc(F)c(COCC3CC3)c2)no1	-22.61
CS(=O)(=O)NCc1cncc2c1CCN(CC1CCOC1)C2 (centres unmarked)	-20.24
Cc1cc(CN2CCN(Cc3cnc4c(c3)c(C)nn4C)CC2)on1	-0.6433
COc1ccc2c(c1)CC(NCCCn1nc(C)nc1C)CC2 (centres unmarked)	-18.52
COc1cccc(CCCn2cnnc2[S+](C)[O-])c1 (centres unmarked)	-2.361
Cc1noc(C2CCN(C(=O)CN(C)c3ccc(Cl)cn3)CC2)n1	-8.623
O=C(NCc1ccccc1)[C@H]1C[C@@H]2CN(C(=O)NC3CCCC3)C[C@H]1O2	-7.1
O=S1(=O)CCN(c2nc(C3CC3)ns2)CC1	-4.876
CC(C)c1nn(C)cc1CNCc1ccnc(N(C)C)c1	-10.27
c1csc(-c2noc(CCCN3CCCC3Cn3cccn3)n2)c1 (centres unmarked)	-2.789
COc1ccccc1OC1CN(C(=O)c2c(C)nc3ccc(C)cn23)C1	-28.8
CC(O)CN1CCN(C(=O)Cc2ccccc2Cl)CC1 (centres unmarked)	-6.944
Cc1nc(CN2CC3(CCN(c4nccs4)C3)CC2=O)cs1 (centres unmarked)	2.817
Cc1ccc(N2CCCC(N(C)Cc3noc(C4CC4)n3)C2)nn1 (centres unmarked)	6.622
Cc1ncsc1C(=O)NCc1cccs1	-12.92
COc1cccc(CC(=O)NC(C)c2nc3cccnc3n2C(C)C)c1 (centres unmarked)	2.854
CC(C)c1nccn1CCCNC(=O)c1ccc(-c2cncnc2)nc1	-9.047
NC(=O)CCN(C(=O)CSc1ccc(F)cc1)c1ccc(F)cc1	-9.831
CSc1ncccc1C(=O)N1C[C@H]2CC[C@@H]1CN(C(=O)N(C)C)C2	-22.52
Cc1cccc(CN2C(=O)CCC23CCN(c2ncc(F)cn2)CC3)n1	1.656
COc1cccc(C(C)N2CCN(S(=O)(=O)CCCF)CC2)c1 (centres unmarked)	7.713

6 of the entries, repeated:

structure	Percent Effect
O=C(c1c2c(N3CCCC3)ncnc2n2ccccc12)N1CCOCC1	-5.579
CSc1ncccc1C(=O)N1C[C@H]2CC[C@@H]1CN(C(=O)N(C)C)C2	-22.52
O=C(C1CCOCC1)N1C[C@@H]2CN(Cc3ccsc3)CCO[C@@H]2C1	6.64
COc1ccnc(N2CCN(C(=O)Cc3ccc(C)s3)CC2)n1	-7.142
O=S1(=O)CCN(c2nc(C3CC3)ns2)CC1	-4.876
CCC(C(=O)NCc1ccncc1)N(c1ccccc1)S(C)(=O)=O (centres unmarked)	-33.86

Measurements from “University of Dundee, Small-Polar-MMV Screening Library” (2021), ChEMBL document CHEMBL3988442.